The values that follow come from BindingDB's records for doi:10.1176/jnp.8.2.223 (1996).

Sequences of proteins named here, by UniProt entry; tags and fusion partners are left off.
UniProt Q95136, whole entry: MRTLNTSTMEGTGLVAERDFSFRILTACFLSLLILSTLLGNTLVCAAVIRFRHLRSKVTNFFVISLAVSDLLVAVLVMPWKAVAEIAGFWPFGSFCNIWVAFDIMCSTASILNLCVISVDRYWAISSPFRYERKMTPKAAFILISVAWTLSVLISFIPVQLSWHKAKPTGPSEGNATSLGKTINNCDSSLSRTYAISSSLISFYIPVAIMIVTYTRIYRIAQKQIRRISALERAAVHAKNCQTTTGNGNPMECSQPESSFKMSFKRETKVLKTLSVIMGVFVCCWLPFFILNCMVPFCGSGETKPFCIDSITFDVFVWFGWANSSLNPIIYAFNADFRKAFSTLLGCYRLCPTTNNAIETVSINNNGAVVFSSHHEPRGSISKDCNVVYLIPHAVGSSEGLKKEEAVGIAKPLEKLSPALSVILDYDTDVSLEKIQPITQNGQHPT

In this assay the target is D(1A) dopamine receptor (Bos taurus, UniProt Q95136).

SMILES strings stand for the structures. Counter-ions that a name gives are not always drawn.

As a reminder, the Ki is a dissociation constant, usually derived from enzyme kinetics or from competition with a known ligand. High values mean weaker binding, low ones tighter binding. Take `OCCN1CCN(CCCN2c3ccccc3Sc3ccc(C(F)(F)F)cc32)CC1` [2-[4-[3-[2-(trifluoromethyl)phenothiazin-10-yl]propyl]piperazin-1-yl]ethanol;hydrochloride]: the Ki amounted to 180 nM.
